This note sets out measurements from US20120178796A1, “SPLICE VARIANTS” (priority 2009, published 2012).

This data set is described as follows: Protein half-life by time course after cycloheximide inhibition of protein synthesis. The note with it: after cycloheximide (CHX); HCT116 cells. The data set is classed as cell-based, human.

B1: SIRT1 Δ8: SIRT1 splice variant protein lacking residues 452-637 encoded by exon 8, about 95 kDa (protein)
chain: ADEAALALQPGGSPSAAGADREAASSPAGEPLRKRPRRDGPGLERSPGEPGGAAPEREVPAAARGCPGAAAAALWREAEAEAAAAGGEQEAQATAAAGEGDNGPGLQGPSREPPLADNLYDEDDDDEGEEEEEAAAAAIGYRDNLLFGDEIITNGFHSCESDEEDRASHASSSDWTPRPRIGPYTFVQQHLMIGTDPRTILKDLLPETIPPPELDDMTLWQIVINILSEPPKRKKRKDINTIEDAVKLLQECKKIIVLTGAGVSVSCGIPDFRSRDGIYARLAVDFPDLPDPQAMFDIEYFRKDPRPFFKFAKEIYPGQFQPSLCHKFIALSDKEGKLLRNYTQNIDTLEQVAGIQRIIQCHGSFATASCLICKYKVDCEAVRGDIFNQVVPRCPRCPADEPLAIMKPEIVFFGENLPEQFHRAMKYDKDEVDLLIVIGSSLKVRPVALIPSNQYLFLPPNRYIFHGAEVYSDSEDDVLSSSSCGSNSDSGTCQSPSLEEPMEDESEIEEFYNGLEDEPDVPERAGGAGFGTDGDDQEAINEAISVKQEVTDMNYPSNKS
modifications: left off: small tags and cut ends
notes: SIRT1 splice variant protein lacking residues 452-637 encoded by exon 8, about 95 kDa
Turning to B1, the protein half-life result is on record as “around 2 hr”.
